Data set [1] in a line: general procedure: Fmoc solid-phase peptide synthesis; Rink amide linker resin; H-Gly-sulfamylbutyryl Novasyn TG resin; HBTU/HOBt, DIPEA; manual couplings with PyBOP/HOBt. The following applies: late stage modification step.
A short description of data set [2]: general procedure: Fmoc solid-phase peptide synthesis; H-Gly-sulfamylbutyryl Novasyn TG resin; HBTU/HOBt, DIPEA; manual couplings with PyBOP/HOBt. Conditions: whole synthesis, on resin loading, scale 0.1 mmol.

Cys-MUC1 glycopeptide registered a step yield in data set [1] of 88%.

For the substance C (Acm)YAFKYARHANVGRNAFELFLGCOSBn, the isolated yield in data set [2] is recorded as 79% based on resin loading capacity.

As to C(Acm)KLFAVWKITYKDTGCOSBn, the isolated yield in data set [2] is on record as 74% based on resin loading capacity.
